# According to PubChem BioAssay AID2551 (National Center for Advancing Translational Sciences (NCATS), 2010):
# The chains behind the UniProt entries cited, without tags or fusion partners. Where a name states a change or a piece, a line headed by the entry shows the natural chain unless it says otherwise.
# UniProt P51450: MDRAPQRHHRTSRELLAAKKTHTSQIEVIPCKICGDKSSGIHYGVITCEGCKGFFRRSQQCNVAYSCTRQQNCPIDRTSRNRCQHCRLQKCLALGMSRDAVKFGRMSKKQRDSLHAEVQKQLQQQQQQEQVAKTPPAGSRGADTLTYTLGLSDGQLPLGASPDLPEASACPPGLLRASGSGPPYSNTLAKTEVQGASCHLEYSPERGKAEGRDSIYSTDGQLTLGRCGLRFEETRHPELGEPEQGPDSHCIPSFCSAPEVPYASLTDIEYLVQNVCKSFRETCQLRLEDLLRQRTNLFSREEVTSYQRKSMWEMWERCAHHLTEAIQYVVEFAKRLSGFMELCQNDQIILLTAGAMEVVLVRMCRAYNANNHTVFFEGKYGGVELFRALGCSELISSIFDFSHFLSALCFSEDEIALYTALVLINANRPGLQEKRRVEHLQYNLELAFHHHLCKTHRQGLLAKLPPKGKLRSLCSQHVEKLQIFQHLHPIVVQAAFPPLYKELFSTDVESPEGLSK
# Out of some 310,000 compounds screened, about 17,000 (5.5%) were called active. The inconclusive results got no clear call from the source; some entries with a clear call stand among them for comparison. Calls follow the shape of the dose curve; as a rule, active = well fitted inhibition curve with a large enough effect; inconclusive = small, poorly fitted or top-dose-only effect, or effect the other way; inactive = no such curve, though single readings can be large or run the other way. Potencies beside an inconclusive call are fits to weak or partial responses and may not hold up.
# Biological target: Nuclear receptor ROR-gamma (Mus musculus) (UniProt P51450)
# Assay: qHTS for inhibitors of ROR gamma transcriptional activity; also: nearly all actives have a fitted effect of over 60% in size
# Conditions: Drosophila S2 Gal4-RORgamma UAS-luciferase reporter, 20 h; activity change, negative = inhibition: at 53.6 µM (top of the series)
# Procedure, shortened: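 In this cell-based reporter format, copper sulfate (700 uM final) drives Gal4–ROR gamma fusion expression from a metallothionein promoter in Drosophila Schneider cells; compounds preincubated 1 hr, reporter read after 20 hr at ambient temperature.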
# % is scaled to controls: 0 for no effect and ±100 for the full control effect; potency is read from the fitted curve at half-maximal effect.
Structure (SMILES),"activity change, negative = inhibition",Potency
O=C(CNC(=O)c1ccccc1F)NCCc1ccc(Cl)cc1,inactive: 25.5%,–
Cc1cc(C)cc(NC(=O)Cn2ncn3c(cc4ccccc43)c2=O)c1,–,"inconclusive: 35.5 µM [inhibitor, single point]"
Cc1nc(NC(=O)C2CCCCC2)sc1C,–,"inconclusive: 6.31 µM [inhibitor, single point]"
CN1CCN(C(=S)c2cn(Cc3ccccc3)c3ccccc23)CC1,–,"inconclusive: 22.4 µM [inhibitor, single point]"
COc1cc(OC)nc(NC(=S)NC(=O)c2ccccc2)n1,–,active: 5.01 µM
COC(=O)COn1c(-n2nc(C)cc2C)nc2ccccc2c1=O,–,active: 3.98 µM
COc1ccccc1N1CCN(CCn2c(=O)[nH]c3c([nH]c4ccccc43)c2=O)CC1,inactive: 17.9%,–
CN(C)/C=C1/C(=O)N(c2ccc([N+](=O)[O-])cc2)N=C1c1ccccc1,–,"inconclusive: 11.2 µM [activator, partial curve]"
Cc1cc(C(C)(C)C)cc(C)c1S(=O)(=O)N1CCN(C(=O)c2cc([N+](=O)[O-])c[nH]c2=O)CC1,inactive: 27.4%,–
CCCCS(=O)(=O)N1CCCC(C(=O)Nc2ccc(Cl)cn2)C1 (stereo not drawn),–,"inconclusive: 25.1 µM [activator, single point]"
N#CC1=C2SCN(c3ccccc3)CN2C(=O)CC1c1ccccc1Cl (stereo not drawn),–,"inconclusive: 35.5 µM [inhibitor, single point]"
CCn1c(C(O)c2cccc(OC)c2OC)nc2ccccc21 (stereo not drawn),–,"inconclusive: 22.4 µM [inhibitor, single point]"
CC(C)COC(=S)Nc1ccccc1,–,"inconclusive: 5.01 µM [inhibitor, partial curve, poor fit]"
O=C(Nc1ccccc1C(=O)Nc1ccccn1)c1cccc([N+](=O)[O-])c1,inactive: 14.5%,–
C/C(=C\c1ccccc1)C(=O)N1CCN(c2cccc(C(F)(F)F)c2)CC1,inactive: -7.83% [at 10 µM],–
COc1cc(CCCN2C(=S)NC[C@@H]2CC2CCCCC2)cc(OC)c1OC,–,active: 3.98 µM
N#Cc1c(SCC(=O)Nc2nncs2)sc2c(O)cc(=O)[nH]c12,inactive: 1.74%,–
CC1=NN(C(=O)COc2ccccc2C)C(O)(c2ccc(Cl)cc2)C1 (stereo not drawn),–,active: 14.1 µM
CCOC(=O)C1=C(C)N=c2s/c(=C/c3ccco3)c(=O)n2C1c1cccc(OC)c1 (stereo not drawn),inactive: -25.8%,–
CN(C)c1ccc(/C=N/NC(=O)C(O)(c2ccccc2)c2ccccc2)o1,–,active: 8.91 µM
Cc1cc(C)n(-c2nc(-c3ccc(Cl)cc3)cs2)n1,–,"inconclusive: 6.31 µM [inhibitor, single point]"
O=C(O)c1nn(Cc2ncc(-c3cccc(Cl)c3)o2)c(=O)c2ccccc12,–,"inconclusive: 14.1 µM [activator, single point]"
c1csc(-c2nn3c(Cn4nnc5ccccc54)nnc3s2)c1,–,"inconclusive: 0.708 µM [inhibitor, full curve, poor fit]"
CCN(c1ccccc1)S(=O)(=O)c1ccc(OC)c(NC(=O)C2CC(=O)N(Cc3ccccc3)C2)c1 (stereo not drawn),–,"inconclusive: 11.2 µM [activator, single point]"
CCSc1nc2sc3c(c2c(=O)n1-c1ccc(OC)cc1)CCN(C)C3,inactive: 14.9%,–

Structure (SMILES),"activity change, negative = inhibition",Potency
COc1ccc(-n2nc3c(N4CCC(C(=O)NCCc5ccccc5C)CC4)nnc(C)c3c2C)cc1,inactive: 1.04%,–
Cc1ccc(-c2cc(C(=O)N3N=C(C(F)F)CC3(O)C(F)F)c3ccccc3n2)cc1C (stereo not drawn),–,"inconclusive: 35.5 µM [inhibitor, single point]"
CN1CC(=O)NC1=NC(=O)c1cc(F)c(F)cc1Cl,–,active: 10 µM
S=C(N/N=C/c1ccccc1)N1CCOCC1,–,active: 0.398 µM
CCOC(=O)C(C(=O)OCC)C(C)(C)/C(C)=N\Nc1ccc([N+](=O)[O-])cc1[N+](=O)[O-],–,"inconclusive: 7.08 µM [activator, partial curve, poor fit]"
Cc1ccc(N/C=C(/C#N)c2ccsc2)cc1,–,"inconclusive: 11.2 µM [activator, partial curve]"
COC(=O)c1scc2c(Oc3ccccc3)cc(C(F)(F)F)nc12,–,"inconclusive: 22.4 µM [activator, single point]"
Oc1ccc(C(=S)N2CCN(Cc3ccccc3)CC2)cc1,inactive: -1.54%,–
CCCN(CCC)Cc1c(C(=O)N/N=C/C(C)=C\c2ccco2)nnn1-c1nonc1N,–,"inconclusive: 0.02 µM [inhibitor, full curve, poor fit]"
C/C(=N\NC(=O)COc1ccc(C(C)(C)C)cc1)c1ccc(N2CCOCC2)cc1,–,"inconclusive: 35.5 µM [inhibitor, single point]"
Cc1sc2ncnc(NCC(O)c3ccc([N+](=O)[O-])cc3)c2c1C (stereo not drawn),–,"inconclusive: 3.98 µM [activator, partial curve]"
S=c1[nH]nc(Nc2cccc(Cl)c2)s1,inactive: -37.8%,–
c1ccc(COc2ccccc2CNC23CC4CC(CC(C4)C2)C3)cc1,–,"inconclusive: 35.5 µM [inhibitor, single point]"
CCCCC(=O)NC(=S)Nc1cccc(NC(=O)CC)c1,–,"inconclusive: 35.5 µM [inhibitor, single point]"
O=C1C2CCCN2C(c2ccco2)N1c1ccc(F)cc1 (stereo not drawn),inactive: 5.47%,–
CC(=O)O[C@H]1CC[C@]2(C)[C@H]3CC=C4[C@@H]5[C@@H](C)[C@H](C)CC[C@]5(C(=O)O)CC[C@@]4(C)[C@]3(C)CC[C@H]2C1(C)C,–,"inconclusive: 0.355 µM [inhibitor, partial curve, poor fit]"
O=C(O)c1ccc(CS(=O)c2cccc(C(F)(F)F)c2)o1 (stereo not drawn),inactive: 2.72%,–
CCOC(=O)c1c(-c2ccc(F)cc2)cn2ccccc12,–,"inconclusive: 6.31 µM [activator, single point]"
CCOC(=O)CS(=O)(=O)c1ccc(O)cc1,inactive: -13%,–
C/C(=N\NC(=O)C(C)Sc1ccccc1)c1ccc([N+](=O)[O-])cc1 (stereo not drawn),–,"inconclusive: 14.1 µM [activator, single point]"
c1ccc2nc3c(cc2c1)CCCCC3,inactive: 44.3%,–
COc1cc(C2=NOC(C(=O)NCc3ccco3)C2)cc(OC)c1OC (stereo not drawn),–,"inconclusive: 6.31 µM [activator, single point]"
C=CCn1c(N)c(C(=O)NCC2CCCO2)c2nc3ccccc3nc21 (stereo not drawn),–,active: 12.6 µM
CO/N=C1\CCCc2c(C(=O)NN)sc(SC)c21,–,"inconclusive: 35.5 µM [inhibitor, single point]"
NC(=O)CC1C(=O)N(c2ccccc2)C(=S)N1NC(=O)c1ccc(Br)cc1 (stereo not drawn),–,"inconclusive: 15.8 µM [inhibitor, single point]"

Structure (SMILES),"activity change, negative = inhibition",Potency
O=C1/C(=C/N(C(=O)c2ccco2)c2ccc(Br)cc2)Sc2ccccc21,–,active: 35.5 µM
CCOC(=O)c1sc(=NC(=O)c2cccs2)n(C)c1C,–,"inconclusive: 0.0224 µM [activator, full curve, poor fit]"
Cc1cccc(C(=O)NC(=S)NNC(=O)c2cccs2)c1,–,"inconclusive: 31.6 µM [activator, single point]"
CC(C)(C)C(=O)[C@@H]1[C@@H]2C(=O)N(Cc3ccccc3)C(=O)[C@@H]2[C@H]2c3ccccc3C=CN12,–,active: 11.2 µM
O=C(Nc1nc2cc3c(cc2s1)OCCO3)c1cccc(S(=O)(=O)N2CCOCC2)c1,–,"inconclusive: 2 µM [activator, full curve, poor fit]"
CC(=O)N(Cc1ccc(F)cc1)Cc1nc2ccccc2c(=O)[nH]1,–,active: 15.8 µM
O=C(Nc1ccc2ccccc2n1)c1ccccc1Cl,–,active: 12.6 µM
COc1ccc(C(=O)NCC(=O)N/N=C(\C)Cc2ccccc2)cc1,inactive: -1.56%,–
CN(C)c1ccc(/C=C2\CCCc3c2nc2ccccc2c3C(=O)O)cc1,inactive: 33.5%,–
CCN(CCCNC(=O)CNC(=O)c1nn(-c2ccc(OC)c(OC)c2)c(=O)c2ccccc12)c1ccccc1,inactive: 10.2%,–
O=C(CC(c1ccccc1)c1cc(Br)ccc1O)NCCN1CCOCC1 (stereo not drawn),–,"inconclusive: 25.1 µM [inhibitor, single point]"
COc1cc(S(=O)(=O)NC2CCCCC2C)ccc1-n1cnnn1 (stereo not drawn),–,"inconclusive: 11.2 µM [activator, partial curve]"
COc1ccc(CCNC(=O)CCn2c(SCC(=O)N3CCCC3)nc3ccccc3c2=O)cc1OC,inactive: 4.58%,–
C(=N\Nc1nc(-c2ccccn2)nc2ccccc12)/c1ccccc1,–,active: 0.0891 µM
CCOC(=O)c1cccc(-n2c(C)cc(C=O)c2C)c1,inactive: -10.2%,–
CCOC(=O)[C@@H]1[C@H]2COc3ccccc3[C@@H]2N2C(=O)N(c3ccc(Cl)cc3)C(=O)[C@@]12C,–,"inconclusive: 15.8 µM [inhibitor, single point]"
CCOC(=O)NC(=O)c1cn(CCN(C)C)c(=O)[nH]c1=O,inactive: 0.556%,–
O=C(Nc1cccc(F)c1)C1CCN(S(=O)(=O)c2cccc3nonc23)CC1,–,"inconclusive: 10 µM [activator, partial curve, poor fit]"
Clc1ccc(C2=NNC(=NCc3ccccc3)SC2)cc1,–,active: 5.01 µM
COc1cc(NC(=S)Nc2ccc(Br)cc2Cl)c(OC)cc1Cl,–,"inconclusive: 15.8 µM [inhibitor, single point]"
CCOC(=O)c1ccc(Oc2c(C)oc3cc(OS(C)(=O)=O)ccc3c2=O)cc1,–,"inconclusive: 17.8 µM [activator, single point]"
Cc1cccc(-n2ncc3c2CCCC3NC(=O)CN2CCCC2=O)c1C (stereo not drawn),–,"inconclusive: 7.94 µM [activator, partial curve]"
COc1ccc(N(CC(=O)Nc2ccccc2C(N)=O)S(=O)(=O)c2ccc(C)c([N+](=O)[O-])c2)cc1,inactive: -1.83%,–

# Filtered by structure: those above containing a tert-butyl group.
Structure (SMILES),"activity change, negative = inhibition",Potency
Cc1cc(C(C)(C)C)cc(C)c1S(=O)(=O)N1CCN(C(=O)c2cc([N+](=O)[O-])c[nH]c2=O)CC1,inactive: 27.4%,–
C/C(=N\NC(=O)COc1ccc(C(C)(C)C)cc1)c1ccc(N2CCOCC2)cc1,–,"inconclusive: 35.5 µM [inhibitor, single point]"
CC(C)(C)C(=O)[C@@H]1[C@@H]2C(=O)N(Cc3ccccc3)C(=O)[C@@H]2[C@H]2c3ccccc3C=CN12,–,active: 11.2 µM
